These are yes or no findings as the source states them, for the method shown. Binding seen in cells or lysates may run through a third protein. These calls come from enrichment with a bait or labelling near it, and not all partners need be listed. Tags and fused reporters may be left off the sequences shown.
What was measured:
[1] = molecular target: T1, Ahp1 (S. cerevisiae 2-Cys peroxyredoxin) (S. cerevisiae) (UniProt P38013); test: copurification with 6His-Srx1, mass spectrometry
T1 sequence (looked up): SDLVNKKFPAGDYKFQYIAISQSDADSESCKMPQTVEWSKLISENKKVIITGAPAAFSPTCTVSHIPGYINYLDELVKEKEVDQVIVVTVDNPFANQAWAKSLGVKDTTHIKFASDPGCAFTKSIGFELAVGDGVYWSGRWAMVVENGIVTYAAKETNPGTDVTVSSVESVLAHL

[2] = molecular target: T2, Tsa2 (S. cerevisiae 2-Cys peroxyredoxin) (S. cerevisiae) (UniProt Q04120); test: copurification with 6His-Srx1, mass spectrometry
T2 sequence (looked up): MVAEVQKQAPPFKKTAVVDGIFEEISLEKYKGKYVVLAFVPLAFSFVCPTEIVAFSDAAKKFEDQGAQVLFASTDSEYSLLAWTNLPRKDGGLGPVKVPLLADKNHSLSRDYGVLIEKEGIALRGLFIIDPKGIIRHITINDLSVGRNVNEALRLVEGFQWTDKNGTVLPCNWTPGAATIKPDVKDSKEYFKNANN

[3] = molecular target: T1, Ahp1 (S. cerevisiae 2-Cys peroxyredoxin) (S. cerevisiae); test: copurification with 6His-Srx1 on Ni-NTA, SDS-PAGE, mass spectrometry
[4] = molecular target: T3, Tsa1 (S. cerevisiae 2-Cys peroxyredoxin) (S. cerevisiae) (UniProt P34760); test: as above
T3 sequence (looked up): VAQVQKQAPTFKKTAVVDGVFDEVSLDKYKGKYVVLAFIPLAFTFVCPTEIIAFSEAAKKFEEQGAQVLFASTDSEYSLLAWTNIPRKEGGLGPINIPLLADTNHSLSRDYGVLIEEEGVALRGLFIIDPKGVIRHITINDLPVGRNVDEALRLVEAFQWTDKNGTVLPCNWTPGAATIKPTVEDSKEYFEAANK

[5] = molecular target: T2, Tsa2 (S. cerevisiae 2-Cys peroxyredoxin) (S. cerevisiae); test: as above

- binding [1]: binds
- binding [2]: binds
- binding [3]: binds
- binding [4]: binds
- binding [5]: binds
B1: 6His-Srx1 (S. cerevisiae sulfiredoxin Srx1 with six histidines at its N-terminal end) (enzyme)
chain: HHHHHHMSLQSNSVKPTEIPLSEIRRPLAPVLDPQKIDAMVATMKGIPTASKTCSLEQAEAAASAGELPPVDVLGVRVKGQTLYYAFGGCHRLQAYDRRARETQNAAFPVRCRVLPATPRQIRMYLGSSLDIE

Reference: US20110189154A1
